# PubChem BioAssay (NCATS)
# The chains behind the UniProt entries cited, without tags or fusion partners. Where a name states a change or a piece, a line headed by the entry shows the natural chain unless it says otherwise.
# UniProt Q03181: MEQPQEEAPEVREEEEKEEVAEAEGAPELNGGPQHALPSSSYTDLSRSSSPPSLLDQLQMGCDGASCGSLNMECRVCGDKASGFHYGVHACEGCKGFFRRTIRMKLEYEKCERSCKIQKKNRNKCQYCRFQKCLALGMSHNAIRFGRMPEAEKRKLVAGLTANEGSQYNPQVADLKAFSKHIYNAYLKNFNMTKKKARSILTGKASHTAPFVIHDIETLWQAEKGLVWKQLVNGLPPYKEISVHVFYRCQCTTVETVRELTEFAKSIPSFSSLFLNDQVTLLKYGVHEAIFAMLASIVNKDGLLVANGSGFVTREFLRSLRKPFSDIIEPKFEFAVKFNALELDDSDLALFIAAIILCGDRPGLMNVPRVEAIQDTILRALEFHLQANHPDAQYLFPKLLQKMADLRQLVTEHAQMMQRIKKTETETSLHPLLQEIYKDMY
# UniProt P19793: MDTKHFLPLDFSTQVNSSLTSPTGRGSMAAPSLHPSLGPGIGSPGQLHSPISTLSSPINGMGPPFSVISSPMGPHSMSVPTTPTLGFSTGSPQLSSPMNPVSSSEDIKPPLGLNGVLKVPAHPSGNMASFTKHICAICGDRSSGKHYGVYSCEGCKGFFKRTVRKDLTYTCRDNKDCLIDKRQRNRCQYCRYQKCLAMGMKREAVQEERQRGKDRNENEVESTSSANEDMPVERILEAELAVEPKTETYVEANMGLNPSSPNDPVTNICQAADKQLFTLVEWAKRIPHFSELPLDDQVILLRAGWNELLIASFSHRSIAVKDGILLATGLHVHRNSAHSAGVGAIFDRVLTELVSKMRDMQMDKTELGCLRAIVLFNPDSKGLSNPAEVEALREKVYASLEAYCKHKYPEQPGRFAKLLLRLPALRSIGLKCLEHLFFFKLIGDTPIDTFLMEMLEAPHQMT
# UniProt P10828: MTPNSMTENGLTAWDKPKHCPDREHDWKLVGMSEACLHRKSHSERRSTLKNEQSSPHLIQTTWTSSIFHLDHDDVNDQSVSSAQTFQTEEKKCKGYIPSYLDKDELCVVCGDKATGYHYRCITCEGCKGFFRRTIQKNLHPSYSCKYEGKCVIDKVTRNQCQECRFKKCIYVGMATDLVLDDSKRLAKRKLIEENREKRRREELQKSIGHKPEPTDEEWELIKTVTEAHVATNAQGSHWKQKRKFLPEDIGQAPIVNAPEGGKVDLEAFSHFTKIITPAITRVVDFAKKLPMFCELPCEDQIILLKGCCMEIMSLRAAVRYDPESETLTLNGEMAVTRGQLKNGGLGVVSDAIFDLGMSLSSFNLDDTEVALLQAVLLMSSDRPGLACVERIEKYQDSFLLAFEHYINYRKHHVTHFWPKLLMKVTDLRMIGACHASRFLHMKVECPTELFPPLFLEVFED
# UniProt Q12809: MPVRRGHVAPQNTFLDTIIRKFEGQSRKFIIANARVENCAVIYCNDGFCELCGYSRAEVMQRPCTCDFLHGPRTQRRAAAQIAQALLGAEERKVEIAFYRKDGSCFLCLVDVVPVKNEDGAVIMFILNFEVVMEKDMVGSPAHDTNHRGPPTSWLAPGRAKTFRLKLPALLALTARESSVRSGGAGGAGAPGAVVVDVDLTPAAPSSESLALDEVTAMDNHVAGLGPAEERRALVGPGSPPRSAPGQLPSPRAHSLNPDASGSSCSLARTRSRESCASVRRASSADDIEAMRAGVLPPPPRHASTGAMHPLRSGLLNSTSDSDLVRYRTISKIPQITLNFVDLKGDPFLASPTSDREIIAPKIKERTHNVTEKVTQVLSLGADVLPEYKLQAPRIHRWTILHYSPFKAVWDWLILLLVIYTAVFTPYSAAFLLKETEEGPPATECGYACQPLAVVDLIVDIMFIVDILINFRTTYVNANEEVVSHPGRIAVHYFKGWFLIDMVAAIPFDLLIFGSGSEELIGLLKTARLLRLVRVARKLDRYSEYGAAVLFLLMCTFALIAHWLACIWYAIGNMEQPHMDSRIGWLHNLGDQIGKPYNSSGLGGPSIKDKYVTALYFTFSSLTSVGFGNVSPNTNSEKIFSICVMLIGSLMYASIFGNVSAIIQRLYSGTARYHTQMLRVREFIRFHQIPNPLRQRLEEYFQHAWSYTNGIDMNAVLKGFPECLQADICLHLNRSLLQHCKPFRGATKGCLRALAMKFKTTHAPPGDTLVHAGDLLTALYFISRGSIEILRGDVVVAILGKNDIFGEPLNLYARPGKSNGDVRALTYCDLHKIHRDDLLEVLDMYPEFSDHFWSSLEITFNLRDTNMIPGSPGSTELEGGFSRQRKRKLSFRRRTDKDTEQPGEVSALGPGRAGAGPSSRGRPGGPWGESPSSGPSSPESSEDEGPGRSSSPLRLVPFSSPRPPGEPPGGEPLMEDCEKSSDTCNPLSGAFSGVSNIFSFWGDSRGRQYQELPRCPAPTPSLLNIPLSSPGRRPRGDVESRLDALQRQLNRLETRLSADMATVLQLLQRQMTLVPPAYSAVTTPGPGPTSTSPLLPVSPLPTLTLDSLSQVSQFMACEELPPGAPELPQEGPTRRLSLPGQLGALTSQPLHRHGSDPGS
# The shares of active, inactive and inconclusive entries below differ from those in the screen. Entries that show only a call come without a potency. For some of these results: Potencies beside an inconclusive call are fits to weak or partial responses and may not hold up. For some of these results: A note “side channel” means that the fit belongs to a control or component signal, not to the main read-out. Active and inactive are the calls of the source. Unless noted, calls follow the shape of the full dose curve.
# Experiments:
# [1] = biological target: Peroxisome proliferator-activated receptor delta (Homo sapiens) (UniProt Q03181); assay: qHTS assay for small molecule antagonists of peroxisome proliferator-activated receptor delta signaling (AID 588535; active = well fitted inhibition curve with a large enough effect in the signal ratio, with a control signal flat, not every such curve was filed as active; inconclusive = small, poorly fitted or top-dose-only effect, or effect the other way, or a change in a side signal; inactive = no such curve, though single readings can be large or run the other way; the % refers to the signal ratio); details: HEK293T PPARd-UAS-bla, beta-lactamase FRET ratio, 18 h; activity change, negative = inhibition: at 76.7 µM (top of the series) unless noted
# Outline: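 Fluorescence from CCF4-loaded GeneBLAzer PPAR-delta-UAS-bla HEK293T cells (2 hrs RT loading) quantified reporter inhibition after an 18 hr, 37 C compound exposure across a titration.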
# [2] = biological target: Retinoic acid receptor RXR-alpha (Homo sapiens) (UniProt P19793); assay: qHTS assay for small molecule agonists of retinoid X receptor alpha signaling (AID 588544); details: HEK293T RXRa-UAS-bla, beta-lactamase reporter, 18 h; activation: at 76.7 µM (top of the series); also: potency is read from the fitted curve at half-maximal effect
# [3] = qHTS assay for small molecule agonists of the antioxidant response element (ARE) signaling pathway (AID 651741; active = well fitted activation curve with a large enough effect in the signal ratio; inconclusive = small, poorly fitted or top-dose-only effect, or effect the other way, or a change in a side signal; the % refers to the signal ratio; also: potency is read from the fitted curve at half-maximal effect); details: HepG2 ARE-bla reporter, beta-lactamase FRET ratio, 16 h; activation: at 96 µM (top of the series) unless noted
# Outline: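 Stably integrated ARE-beta-lactamase reporter HepG2 cells; 16 h compound incubation, 37 C; LiveBLAzer FRET substrate 2 h at room temperature; fluorescence intensity.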
# [4] = biological target: Peroxisome proliferator-activated receptor delta (Homo sapiens) (UniProt Q03181); assay: qHTS assay for small molecule agonists of peroxisome proliferator-activated receptor delta signaling (AID 588534); details: HEK293T PPARdelta-UAS-bla, beta-lactamase ratio, 18 h; activation: at 76.7 µM (top of the series) unless noted; also: potency is read from the fitted curve at half-maximal effect
# Outline: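 Agonist-mode beta-lactamase reporter readout (CCF4 dye, 2 h at RT) after 18 h at 37 °C exposure to a titration; Hill-equation fitting gave EC50 and maximal response.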
# [5] = biological target: Peroxisome proliferator-activated receptor gamma (Homo sapiens) (UniProt P37231); assay: qHTS assay for small molecule antagonists of peroxisome proliferator-activated receptor gamma signaling (AID 588537; active = well fitted inhibition curve with a large enough effect in the signal ratio, with a control signal flat, not every such curve was filed as active; inconclusive = small, poorly fitted or top-dose-only effect, or effect the other way, or a change in a side signal; the % refers to the signal ratio;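 also: reporter cells co-stimulated with 50 nM rosiglitazone agonist during compound treatment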); details: HEK293 PPARg-UAS-bla, beta-lactamase ratio, antagonist mode; activity, negative = inhibition: at 76.8 µM (top of the series) unless noted
# Outline: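 Fluorescence at 460 and 530 nm (405 nm excitation) reported beta-lactamase cleavage of CCF4 after 2 h room-temperature loading. HEK293 reporter cells in 1% charcoal/dextran-treated FBS had received compound and rosiglitazone for 16 h.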
# [6] = qHTS assay for small molecule disruptors of the mitochondrial membrane potential - 5 hr assay (AID 651755); details: JC-1-type ratio dye; ratio change, negative = disruption: at 92.2 µM (top of the series); also: nearly all actives have a fitted effect of over 40% in size
# Outline: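 Read-out: ratiometric Mito-MPS fluorescence, green monomer (ex 490/em 535) vs red mitochondrial aggregate (ex 540/em 590). HepG2 cells treated 5 hr at 37C before 30 min dye loading.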
# [7] = qHTS assay to identify small molecules that stimulate interleukin-8 (IL-8) secretion (AID 651758; active = well fitted activation curve with a large enough effect in the signal ratio; inconclusive = small, poorly fitted or top-dose-only effect, or effect the other way, or a change in a side signal; the % refers to the signal ratio); details: HTRF ratio (665/615); activation: at 92.2 µM (top of the series)
# Outline: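 Compounds are added to THP-1 cells (2000 per well) and left 16 hrs at 37 C. A labeled anti-IL-8 antibody pair is then added, and IL-8 secretion is measured by time-resolved FRET after 1-3 hrs at room temperature.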
# [8] = Cell Viability - LYMP2-022 (AID 987; active = well fitted curve in the direction sought with a large enough effect; inconclusive = small, poorly fitted or top-dose-only effect, or another doubt; inactive = no such curve, though single readings can be large; an effect the other way counts as inactive or inconclusive; also: nearly all actives have a fitted effect of over 55% in size)
# Outline: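 Cytotoxicity read as decreased cellular ATP (CellTiter-Glo luminescence, 30 min room temperature) after 24 hours compound exposure of 2500 lymphoblastoid LYMP2-022 cells/well at 37 C. Concentration-response data fitted with standard Hill equation for AC50.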
# [9] = biological target: Thyroid hormone receptor beta (Homo sapiens) (UniProt P10828); assay: qHTS assay for small molecule agonists of thyroid hormone receptor beta signaling (AID 588545); details: TR-UAS-bla GripTite HEK 293, beta-lactamase ratio, agonist mode, 18 h; activation: at 76.7 µM, percent of T3 response, DMSO as zero
# Outline: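 Efficacy and EC50 values derive from Hill fits of qHTS titration data, normalized to 10 nM T3 and DMSO-only wells. HEK 293 reporter cells were stimulated for 18 hrs at 37 C, with beta-lactamase activity measured by CCF4 fluorescence.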
# [10] = biological target: Retinoic acid receptor RXR-alpha (Homo sapiens) (UniProt P19793); assay: qHTS assay for small molecule antagonists of retinoid X receptor alpha signaling (AID 588546; active = well fitted inhibition curve with a large enough effect in the signal ratio, with a control signal flat, not every such curve was filed as active; inconclusive = small, poorly fitted or top-dose-only effect, or effect the other way, or a change in a side signal; inactive = no such curve, though single readings can be large or run the other way; the % refers to the signal ratio;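 also: cells stimulated with 9-cis-retinoic acid as agonist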); details: HEK293T RXRa-UAS-bla, beta-lactamase ratio, antagonist mode
# Outline: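 Beta-lactamase reporter inhibition, read as CCF4 fluorescence ratio (ex 405, em 460/530 nm) after 2 h at RT. HEK293T UAS-bla cells, 2500/well, were stimulated with 9-cis-RA at 500 or 100 nM final alongside test compound for 18 h at 37 C.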
# [11] = biological target: Voltage-gated inwardly rectifying potassium channel KCNH2 (Homo sapiens) (UniProt Q12809); assay: qHTS Assay for Small Molecule Inhibitors of the Human hERG Channel Activity (AID 588834; active = well fitted curve in the direction sought with a large enough effect; inconclusive = small, poorly fitted or top-dose-only effect, or another doubt; inactive = no such curve, though single readings can be large; an effect the other way counts as inactive or inconclusive;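 also: top concentration of the series differs between compounds; lower thallium flux fluorescence means stronger hERG block; nearly all actives have a fitted effect of over 50% in size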)
# Outline: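 Homogeneous FluxOR thallium flux assay using hERG-expressing U2OS cells (BacMam). Compound treatment about 10 minutes preceded stimulation; reduced fluorescence taken as channel block.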
# [12] = Cellular Toxicity (caspase-3) Jurkat (AID 655; active = well fitted curve in the direction sought with a large enough effect; inconclusive = small, poorly fitted or top-dose-only effect, or another doubt; inactive = no such curve, though single readings can be large; an effect the other way counts as inactive or inconclusive;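 also: cells exposed to compound for 16 h at 37 °C before reading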); details: Jurkat caspase-3 activation, luminescence, DMSO = 0%, tamoxifen = 100%; at 92.2 µM (top of the series)
# Outline: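 qHTS in human Jurkat T-cell leukemia line: 16 hr compound treatment at 37 °C, caspase-3/7 activity measured by Caspase-Glo luminescence. AC50 derived from Hill equation.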
# [13] = Cell Viability - LYMP2-015 (AID 971; active = well fitted curve in the direction sought with a large enough effect; inconclusive = small, poorly fitted or top-dose-only effect, or another doubt; inactive = no such curve, though single readings can be large; an effect the other way counts as inactive or inconclusive; also: nearly all actives have a fitted effect of over 55% in size)
# Outline: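 Cytotoxicity readout: decrease in intracellular ATP (CellTiter-Glo luminescence) in 2500 LYMP2-015 lymphoblastoid cells/well after 24 h compound exposure at 37 C. Concentration-response data fitted with the standard Hill equation to give AC50.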
# [14] = Cell Viability - LYMP2-024 (AID 988; active = well fitted curve in the direction sought with a large enough effect; inconclusive = small, poorly fitted or top-dose-only effect, or another doubt; inactive = no such curve, though single readings can be large; an effect the other way counts as inactive or inconclusive; also: nearly all actives have a fitted effect of over 60% in size)
# Outline: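 Cytotoxicity was taken as a decrease in ATP (CellTiter-Glo luminescence) after 24 hr compound exposure at 37 C of LYMP2-024 lymphoblastoid cells, 2500 cells/well. Concentration-response data were fitted to the Hill equation to give AC50.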
smiles,measurement,setting,value
CC(COCC(C)OC(=O)c1ccccc1)OC(=O)c1ccccc1 (stereo not given),Potency,[1],inactive
same,Potency,[2],"inconclusive: 28.2 µM [inhibitor, partial curve]"
same,Potency,[3],inactive
Cc1cc(C)cc(O)c1,Potency,[4],inactive
same,"activity, negative = inhibition",[5],inconclusive: 7.75%
same,Potency,[6],inactive
same,activation,[7],inconclusive: -13.9%
CC(C)=C1CCC(C)CC1=O (stereo not given),Potency,[8],inactive
same,Potency,[4],"inconclusive: 50.1 µM [activator, partial curve, poor fit]"
same,activation,[9],inconclusive: -22.4%
same,Potency,[3],inactive
same,Potency,[7],inactive
[O-]/[N+](=N\O)c1ccccc1,"activity change, negative = inhibition",[1],inconclusive: -16.9%
same,activation,[2],inconclusive: -16.6%
same,max response,[10],inconclusive: 29.2%
same,Potency,[11],inactive
same,activation,[7],inconclusive: 15.9%
O=Cc1cccc(Br)c1,caspase-3 activation,[12],inactive: 2.44%
same,Potency,[13],inactive
same,Potency,[14],inactive
same,Potency,[1],inactive
same,"activity, negative = inhibition",[5],inconclusive: 12%
same,Potency,[2],inactive
same,Potency,[3],"inconclusive: 33.5 µM [side channel, rising, partial curve, poor fit]"
same,Potency,[7],inactive

# For reference, part of the list above:
smiles,measurement,setting,value
CC(C)=C1CCC(C)CC1=O (stereo not given),Potency,[7],inactive
[O-]/[N+](=N\O)c1ccccc1,"activity change, negative = inhibition",[1],inconclusive: -16.9%
